Experimental data: PubChem BioAssay AID652259 (Drosophila RNAi Screening Center, 2013)
Screen: 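Identify new Wingless signalling regulators in fly cells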 (primary screen). Cell system: Drosophila clone 8 imaginal disc epithelial cells. Knock-down reagent: long dsRNA against Drosophila genes. Treatment: pathway stimulated by co-transfected Wingless expression plasmid. Measurement: 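Dual luciferase reads per well after Wingless plasmid stimulation: reporter firefly light and Renilla control light; activity is firefly divided by Renilla, a ratio not deposited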. Scale: firefly reporter light: higher = more Wg reporter light, before normalisation; Renilla control light: higher = more transfected or surviving cells. Hit rule: 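a knock-down is a candidate when at least two out of four statistical tests show it departing from its plate mean; one test alone signals a weak candidate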. Meaning of the calls: active = candidate regulator (raises or lowers reporter); inactive = not a candidate.
In all, the deposit lists about 22,000 reagents; below is a random part of those that have a named target and a result. Over the whole deposit, 233 (1.1%) are marked active. 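Light values are raw, unnormalised plate reads; the ratio scores behind the reporter calls were not deposited.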 Entries without a mark were called inactive. The record does not give: the amount of reagent, the time to read-out, the dose of the treatment.

Gene	DRSC id	reporter change call, replicate 1	firefly reporter light, replicate 1	firefly reporter light, replicate 2	Renilla control light, replicate 1	Renilla control light, replicate 2
pyr (GeneID 36255)	DRSC06319		8850		3164	
pyr (GeneID 36255)	DRSC22520		8.79e5	9.46e5	4.24e5	4.37e5
asf1 (GeneID 40141)	DRSC11324		4205		1293	
Fer1 (GeneID 2768661)	DRSC12507		22737		4086	
Fer1 (GeneID 2768661)	DRSC12555		15363		2935	
CG17283 (GeneID 42094)	DRSC15219		11577		3705	
CG7484 (GeneID 39969)	DRSC10853		8386		3025	
CG4496 (GeneID 34000)	DRSC02753		1936	6705	673	2007
CG2972 (GeneID 31943)	DRSC18250		1737	5749	656	2005
rempA (GeneID 33230)	DRSC00327		2116	5532	843	2416
CG13813 (GeneID 40218)	DRSC10068		8419		1904	
CG4660 (GeneID 31542)	DRSC18378		19953		9138	
CG13946 (GeneID 50198)	DRSC00364		2001	7589	1162	2981
h-cup (GeneID 41879)	DRSC15973		4890		1621	

Looked up above.
For “firefly reporter light, replicate 1”, pyr (GeneID 36255) [DRSC06319] reads 8850
pyr (GeneID 36255) [DRSC22520], Renilla control light, replicate 2: 4.37e5

Next reagents:
Gene	DRSC id	reporter change call, replicate 1	firefly reporter light, replicate 1	firefly reporter light, replicate 2	Renilla control light, replicate 1	Renilla control light, replicate 2
CG12054 (GeneID 43694)	DRSC14467	Wg reporter activity raised (active)	2849	4813	177	448
CG34325 (GeneID 32656)	DRSC19802		23096		9530	
CG34325 (GeneID 32656)	DRSC20200		25776		10064	
l(1)10Bb (GeneID 32069)	DRSC20346		19092		6906	
CG15628 (GeneID 33681)	DRSC00256	Wg reporter activity raised (active)	40230		3708	
CG15628 (GeneID 33681)	DRSC00463		2400	9104	1044	2534
CG10194 (GeneID 35231)	DRSC02025		12348		4121	
CG5863 (GeneID 42096)	DRSC15898		13013		2309	
CG3604 (GeneID 33593)	DRSC00618		2310	7964	696	2498
Gba1b (GeneID 318721)	DRSC21531		4.26e5	5.06e5	2.12e5	1.99e5
CG31548 (GeneID 318794)	DRSC22640		6.85e5	6.43e5	3.47e5	68
Nsf2 (GeneID 41694)	DRSC22104		8.24e5	8.37e5	2.87e5	2.93e5
bsk (GeneID 44801)	DRSC03499		13531		4213	
NaCP60E (GeneID 37981)	DRSC04307		13829		5207	
NaCP60E (GeneID 37981)	DRSC21351		6.76e5	7.45e5	4.15e5	3.46e5
